Laboratory results from the supplement of paper PMC10849652.
This is one part of the list.

Amino acid sequences for entries named in this document (tags omitted). A change or cut given only in a name is not applied to a line headed by its entry.
UniProt Q16595: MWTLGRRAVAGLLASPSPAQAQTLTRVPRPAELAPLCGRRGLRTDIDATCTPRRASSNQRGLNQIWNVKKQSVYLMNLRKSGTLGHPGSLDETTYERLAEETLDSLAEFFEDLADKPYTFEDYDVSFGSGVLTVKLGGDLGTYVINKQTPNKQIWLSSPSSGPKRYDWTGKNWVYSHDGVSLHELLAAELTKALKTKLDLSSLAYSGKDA
UniProt P09958, whole entry, looked up: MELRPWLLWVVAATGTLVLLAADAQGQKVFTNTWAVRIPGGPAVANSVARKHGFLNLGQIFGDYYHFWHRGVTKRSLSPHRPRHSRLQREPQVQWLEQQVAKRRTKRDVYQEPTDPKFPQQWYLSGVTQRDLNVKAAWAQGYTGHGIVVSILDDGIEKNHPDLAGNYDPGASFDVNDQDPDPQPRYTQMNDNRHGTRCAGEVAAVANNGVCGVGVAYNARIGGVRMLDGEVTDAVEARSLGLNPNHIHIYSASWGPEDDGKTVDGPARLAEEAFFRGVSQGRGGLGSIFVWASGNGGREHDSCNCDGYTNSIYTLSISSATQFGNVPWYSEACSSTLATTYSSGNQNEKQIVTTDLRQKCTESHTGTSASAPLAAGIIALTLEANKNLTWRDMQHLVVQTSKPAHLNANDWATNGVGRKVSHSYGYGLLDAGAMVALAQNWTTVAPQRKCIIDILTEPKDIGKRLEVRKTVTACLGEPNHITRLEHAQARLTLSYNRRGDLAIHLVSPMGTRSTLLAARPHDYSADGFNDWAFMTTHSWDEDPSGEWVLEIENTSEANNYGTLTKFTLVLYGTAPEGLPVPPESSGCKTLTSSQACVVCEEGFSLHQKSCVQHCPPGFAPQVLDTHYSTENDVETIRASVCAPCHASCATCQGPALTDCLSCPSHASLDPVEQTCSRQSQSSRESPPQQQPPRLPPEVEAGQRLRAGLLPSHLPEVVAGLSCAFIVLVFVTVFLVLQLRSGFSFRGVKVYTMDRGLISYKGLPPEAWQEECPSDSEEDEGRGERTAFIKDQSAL
UniProt Q8NCL4: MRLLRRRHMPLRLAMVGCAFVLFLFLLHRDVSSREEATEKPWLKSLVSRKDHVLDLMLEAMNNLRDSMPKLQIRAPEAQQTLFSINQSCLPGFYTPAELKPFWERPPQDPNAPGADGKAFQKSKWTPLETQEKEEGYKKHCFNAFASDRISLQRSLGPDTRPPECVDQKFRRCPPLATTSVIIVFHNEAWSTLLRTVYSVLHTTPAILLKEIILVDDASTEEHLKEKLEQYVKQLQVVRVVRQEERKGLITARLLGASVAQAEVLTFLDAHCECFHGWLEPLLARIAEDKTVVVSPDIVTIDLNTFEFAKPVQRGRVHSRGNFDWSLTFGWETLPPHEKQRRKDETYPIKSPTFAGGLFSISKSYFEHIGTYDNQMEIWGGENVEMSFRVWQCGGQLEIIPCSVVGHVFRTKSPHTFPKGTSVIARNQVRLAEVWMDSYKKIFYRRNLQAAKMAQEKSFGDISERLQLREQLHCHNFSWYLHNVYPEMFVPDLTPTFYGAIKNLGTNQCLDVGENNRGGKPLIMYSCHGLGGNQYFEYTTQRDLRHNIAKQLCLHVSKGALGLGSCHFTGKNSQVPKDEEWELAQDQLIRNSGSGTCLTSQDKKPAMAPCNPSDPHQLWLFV
UniProt Q3B7J2: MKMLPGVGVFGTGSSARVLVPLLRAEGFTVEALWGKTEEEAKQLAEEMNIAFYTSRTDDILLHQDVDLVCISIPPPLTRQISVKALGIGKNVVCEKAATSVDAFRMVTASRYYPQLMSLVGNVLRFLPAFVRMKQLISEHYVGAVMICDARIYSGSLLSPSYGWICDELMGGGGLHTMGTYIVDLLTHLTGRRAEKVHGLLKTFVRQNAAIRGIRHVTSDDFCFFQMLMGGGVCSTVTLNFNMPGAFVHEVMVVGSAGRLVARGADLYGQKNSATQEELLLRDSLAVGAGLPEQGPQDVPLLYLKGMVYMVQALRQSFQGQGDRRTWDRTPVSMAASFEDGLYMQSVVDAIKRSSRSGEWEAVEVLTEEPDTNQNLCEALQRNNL
UniProt P24522: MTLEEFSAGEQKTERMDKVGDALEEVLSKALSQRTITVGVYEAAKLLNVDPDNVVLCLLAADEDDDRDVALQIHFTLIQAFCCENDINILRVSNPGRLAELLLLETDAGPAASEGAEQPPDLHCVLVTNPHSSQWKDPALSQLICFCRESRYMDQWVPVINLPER
UniProt Q99988: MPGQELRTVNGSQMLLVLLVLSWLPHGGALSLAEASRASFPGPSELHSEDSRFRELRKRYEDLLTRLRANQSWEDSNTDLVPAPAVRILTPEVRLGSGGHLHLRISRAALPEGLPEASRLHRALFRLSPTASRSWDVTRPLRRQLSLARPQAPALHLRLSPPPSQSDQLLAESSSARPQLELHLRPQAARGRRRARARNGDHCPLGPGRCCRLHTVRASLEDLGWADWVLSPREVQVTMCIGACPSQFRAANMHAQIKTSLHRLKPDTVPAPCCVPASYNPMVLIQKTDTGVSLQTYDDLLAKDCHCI
UniProt P32456: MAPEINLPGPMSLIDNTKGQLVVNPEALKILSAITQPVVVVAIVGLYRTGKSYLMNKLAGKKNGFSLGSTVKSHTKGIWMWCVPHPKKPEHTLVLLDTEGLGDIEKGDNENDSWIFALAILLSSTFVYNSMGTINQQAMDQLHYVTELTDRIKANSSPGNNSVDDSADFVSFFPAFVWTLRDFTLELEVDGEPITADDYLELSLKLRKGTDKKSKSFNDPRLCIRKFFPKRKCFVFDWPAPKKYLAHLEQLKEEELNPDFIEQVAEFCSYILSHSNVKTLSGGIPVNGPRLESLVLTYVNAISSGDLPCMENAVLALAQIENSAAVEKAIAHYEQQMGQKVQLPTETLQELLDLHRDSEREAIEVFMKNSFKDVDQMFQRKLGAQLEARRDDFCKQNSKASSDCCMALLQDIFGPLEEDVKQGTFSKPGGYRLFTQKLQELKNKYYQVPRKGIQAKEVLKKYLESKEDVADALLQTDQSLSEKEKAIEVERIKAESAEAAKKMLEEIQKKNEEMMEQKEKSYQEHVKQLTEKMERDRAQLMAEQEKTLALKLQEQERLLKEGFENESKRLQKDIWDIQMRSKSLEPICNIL
UniProt Q8TAK5: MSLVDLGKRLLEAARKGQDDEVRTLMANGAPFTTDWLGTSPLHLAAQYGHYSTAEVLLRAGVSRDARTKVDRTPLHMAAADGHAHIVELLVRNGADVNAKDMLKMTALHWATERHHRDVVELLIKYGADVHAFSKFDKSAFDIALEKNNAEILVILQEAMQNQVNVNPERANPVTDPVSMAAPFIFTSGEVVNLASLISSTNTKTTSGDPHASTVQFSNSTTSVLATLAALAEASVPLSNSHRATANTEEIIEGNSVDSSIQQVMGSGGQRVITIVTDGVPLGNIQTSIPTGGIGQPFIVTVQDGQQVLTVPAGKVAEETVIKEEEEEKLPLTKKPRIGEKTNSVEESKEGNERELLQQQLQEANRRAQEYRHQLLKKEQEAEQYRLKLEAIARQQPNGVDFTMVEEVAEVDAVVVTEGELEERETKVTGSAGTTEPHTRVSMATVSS
UniProt Q9NWZ8: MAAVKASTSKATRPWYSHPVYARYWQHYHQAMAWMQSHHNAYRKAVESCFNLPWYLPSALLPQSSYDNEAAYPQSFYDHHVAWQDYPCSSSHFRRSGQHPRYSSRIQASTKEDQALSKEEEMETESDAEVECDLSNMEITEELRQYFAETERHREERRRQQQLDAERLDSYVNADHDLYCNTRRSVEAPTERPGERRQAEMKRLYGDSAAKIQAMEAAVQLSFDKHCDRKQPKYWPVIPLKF
UniProt Q495W5: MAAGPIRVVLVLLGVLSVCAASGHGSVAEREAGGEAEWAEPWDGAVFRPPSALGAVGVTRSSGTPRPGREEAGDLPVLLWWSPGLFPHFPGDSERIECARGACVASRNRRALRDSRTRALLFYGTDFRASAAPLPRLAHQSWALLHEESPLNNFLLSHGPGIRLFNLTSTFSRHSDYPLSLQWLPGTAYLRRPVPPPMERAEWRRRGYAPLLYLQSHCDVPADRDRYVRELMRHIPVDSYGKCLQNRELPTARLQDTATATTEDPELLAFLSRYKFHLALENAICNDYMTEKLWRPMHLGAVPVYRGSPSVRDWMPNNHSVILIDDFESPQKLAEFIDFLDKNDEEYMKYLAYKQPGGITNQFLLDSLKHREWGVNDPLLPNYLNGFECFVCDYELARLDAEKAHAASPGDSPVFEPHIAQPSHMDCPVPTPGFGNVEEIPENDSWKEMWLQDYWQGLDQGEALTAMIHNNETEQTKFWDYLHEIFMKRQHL
UniProt Q8IVH2: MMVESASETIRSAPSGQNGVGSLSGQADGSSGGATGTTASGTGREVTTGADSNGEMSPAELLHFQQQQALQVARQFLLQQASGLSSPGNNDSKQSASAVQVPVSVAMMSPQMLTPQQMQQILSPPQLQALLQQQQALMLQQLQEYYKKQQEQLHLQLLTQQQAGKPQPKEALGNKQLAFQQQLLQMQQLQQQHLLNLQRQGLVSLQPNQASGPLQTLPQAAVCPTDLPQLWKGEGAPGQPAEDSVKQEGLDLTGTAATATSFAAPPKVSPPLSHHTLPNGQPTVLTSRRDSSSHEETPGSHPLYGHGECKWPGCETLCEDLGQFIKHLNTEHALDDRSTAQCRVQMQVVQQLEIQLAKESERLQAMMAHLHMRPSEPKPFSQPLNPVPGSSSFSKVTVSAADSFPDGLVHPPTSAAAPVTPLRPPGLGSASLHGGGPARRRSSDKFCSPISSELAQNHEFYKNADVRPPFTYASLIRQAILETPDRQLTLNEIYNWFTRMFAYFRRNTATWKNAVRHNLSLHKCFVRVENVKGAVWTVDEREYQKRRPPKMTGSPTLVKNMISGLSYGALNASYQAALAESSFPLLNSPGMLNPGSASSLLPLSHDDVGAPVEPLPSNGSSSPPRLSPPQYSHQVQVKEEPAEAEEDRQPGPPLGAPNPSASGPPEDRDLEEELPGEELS
UniProt Q8TB36: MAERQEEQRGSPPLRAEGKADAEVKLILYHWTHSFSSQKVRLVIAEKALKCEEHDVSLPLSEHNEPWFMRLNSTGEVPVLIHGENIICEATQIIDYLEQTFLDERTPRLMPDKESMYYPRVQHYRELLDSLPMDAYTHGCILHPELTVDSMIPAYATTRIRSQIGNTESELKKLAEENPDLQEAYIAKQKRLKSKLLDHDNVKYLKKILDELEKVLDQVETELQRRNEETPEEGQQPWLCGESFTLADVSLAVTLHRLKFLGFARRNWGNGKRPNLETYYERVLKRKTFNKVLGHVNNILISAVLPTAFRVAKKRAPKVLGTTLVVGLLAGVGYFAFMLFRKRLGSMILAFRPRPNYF
UniProt Q14393: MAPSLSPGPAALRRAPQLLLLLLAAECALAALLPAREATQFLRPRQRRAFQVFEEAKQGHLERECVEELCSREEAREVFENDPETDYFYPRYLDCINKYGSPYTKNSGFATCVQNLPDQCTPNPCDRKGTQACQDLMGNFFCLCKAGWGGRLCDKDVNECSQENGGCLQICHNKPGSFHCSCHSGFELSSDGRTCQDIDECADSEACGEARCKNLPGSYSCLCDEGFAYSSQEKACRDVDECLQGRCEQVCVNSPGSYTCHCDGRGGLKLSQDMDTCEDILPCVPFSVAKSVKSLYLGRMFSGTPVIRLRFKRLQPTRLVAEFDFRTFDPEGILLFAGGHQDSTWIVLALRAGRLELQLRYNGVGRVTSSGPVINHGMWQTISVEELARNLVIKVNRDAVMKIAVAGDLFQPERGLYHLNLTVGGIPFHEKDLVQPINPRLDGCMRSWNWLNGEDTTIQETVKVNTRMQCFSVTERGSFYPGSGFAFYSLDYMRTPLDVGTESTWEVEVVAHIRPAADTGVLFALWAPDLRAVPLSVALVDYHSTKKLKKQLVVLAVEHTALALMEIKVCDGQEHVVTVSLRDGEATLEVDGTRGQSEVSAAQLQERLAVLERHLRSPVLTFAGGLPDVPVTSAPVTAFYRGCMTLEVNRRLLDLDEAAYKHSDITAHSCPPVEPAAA
UniProt O43716: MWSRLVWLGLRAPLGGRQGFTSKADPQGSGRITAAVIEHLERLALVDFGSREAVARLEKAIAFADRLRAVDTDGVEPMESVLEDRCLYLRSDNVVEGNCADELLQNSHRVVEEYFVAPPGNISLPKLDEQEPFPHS
UniProt P02774: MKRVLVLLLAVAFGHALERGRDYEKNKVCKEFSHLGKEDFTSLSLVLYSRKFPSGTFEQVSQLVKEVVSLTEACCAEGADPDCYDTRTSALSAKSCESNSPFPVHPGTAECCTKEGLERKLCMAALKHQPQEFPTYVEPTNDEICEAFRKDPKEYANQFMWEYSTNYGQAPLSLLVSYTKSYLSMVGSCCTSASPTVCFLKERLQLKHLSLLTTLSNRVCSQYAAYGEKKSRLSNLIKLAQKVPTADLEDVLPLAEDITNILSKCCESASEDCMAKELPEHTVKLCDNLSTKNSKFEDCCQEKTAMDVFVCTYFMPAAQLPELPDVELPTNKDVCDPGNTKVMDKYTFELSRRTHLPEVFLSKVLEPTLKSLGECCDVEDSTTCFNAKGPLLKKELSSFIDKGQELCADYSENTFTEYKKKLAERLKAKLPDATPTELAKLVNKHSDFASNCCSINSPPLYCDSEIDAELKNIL

What was measured:
Assay in all cases: log2 fold change, soluble protein after heating vs DMSO (PISA); higher = thermal stabilisation; K562 lysate, 10 uM; active = over 0.2 and 3.5 SD of the protein, either way, in both replicates (recomputed)
alvocidib = compound: CN1CC[C@H](c2c(O)cc(O)c3c(=O)cc(-c4ccccc4Cl)oc23)[C@H](O)C1 [alvocidib]
Method in brief: (§1)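 Soluble protein was defined as the supernatant remaining after 21,000xg for 90 min, following pooling of heated aliquots and adjustment to 0.5% NP-40 at 4°C. Before that, crude K562 extract at 1 mg/mL protein in PBS pH 7.4 with 1 mM MgCl2 was treated with 10 μM compound for 30 min and heated for 3 min across 48°C-58°C. Quantification used TMTpro 16plex LC-MS/MS with channel sums equalised, and values are log-two fold changes in thermal stability relative to solvent controls from duplicates.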

Tubastatin A = compound: CN1CCc2c(c3ccccc3n2Cc2ccc(C(=O)NO)cc2)C1 [Tubastatin A]
Method in brief: as §1

[1] = compound: CNC(=O)C1=CC=CC=C1NC2=NC(=NC=C2Cl)NC3=C(C=C(C=C3)N4CCOCC4)OC
Method in brief: as §1

defactinib = compound: CNC(=O)c1ccc(Nc2ncc(C(F)(F)F)c(NCc3nccnc3N(C)S(C)(=O)=O)n2)cc1 [defactinib]
Method in brief: as §1

[2] = compound: CNc1nc(-c2ccc3c(N)n[nH]c3c2)cc(N2C[C@@H](C(=O)NC3CCCCC3)CC[C@H]2C)n1
Method in brief: as §1

encorafenib = compound: COC(=O)N[C@@H](C)CNc1nccc(-c2cn(C(C)C)nc2-c2cc(Cl)cc(NS(C)(=O)=O)c2F)n1 [encorafenib]
Method in brief: as §1

[3] = compound: COC(=O)[C@H](CCSC)NC(=O)C1=C(C=C(C=C1)NC[C@H](CS)N)C2=CC=CC=C2
Method in brief: as §1

alisertib = compound: COc1cc(Nc2ncc3c(n2)-c2ccc(Cl)cc2C(c2c(F)cccc2OC)=NC3)ccc1C(=O)O [alisertib]
Method in brief: as §1

[4] = compound: COc1cc2nc(-c3cc(F)ccc3O)nc(N[C@@H]3CNC[C@H]3C(C)(C)O)c2cc1OC
Method in brief: as §1

gefitinib = compound: COc1cc2ncnc(Nc3ccc(F)c(Cl)c3)c2cc1OCCCN1CCOCC1 [gefitinib]
Method in brief: as §1

lapatinib = compound: CS(=O)(=O)CCNCc1ccc(-c2ccc3ncnc(Nc4ccc(OCc5cccc(F)c5)c(Cl)c4)c3c2)o1 [lapatinib]
Method in brief: as §1

pictilisib = compound: CS(=O)(=O)N1CCN(Cc2cc3nc(-c4cccc5[nH]ncc45)nc(N4CCOCC4)c3s2)CC1 [pictilisib]
Method in brief: as §1

crizotinib = compound: C[C@@H](Oc1cc(-c2cnn(C3CCNCC3)c2)cnc1N)c1c(Cl)ccc(F)c1Cl [crizotinib]
Method in brief: as §1

[5] = compound: C[C@H](C1=CC=C(C=C1)C(=O)NC2=C3C=CNC3=NC=C2)N
Method in brief: as §1

duvelisib = compound: C[C@H](Nc1ncnc2nc[nH]c12)c1cc2cccc(Cl)c2c(=O)n1-c1ccccc1 [duvelisib]
Method in brief: as §1

gandotinib = compound: Cc1cc(Nc2cc(CN3CCOCC3)c3nc(C)c(Cc4ccc(Cl)cc4F)n3n2)n[nH]1 [gandotinib]
Method in brief: as §1

tozasertib = compound: Cc1cc(Nc2cc(N3CCN(C)CC3)nc(Sc3ccc(NC(=O)C4CC4)cc3)n2)n[nH]1 [tozasertib]
Method in brief: as §1

doramapimod = compound: Cc1ccc(-n2nc(C(C)(C)C)cc2NC(=O)Nc2ccc(OCCN3CCOCC3)c3ccccc23)cc1 [doramapimod]
Method in brief: as §1

bafetinib = compound: Cc1ccc(NC(=O)c2ccc(CN3CC[C@H](N(C)C)C3)c(C(F)(F)F)c2)cc1Nc1nccc(-c2cncnc2)n1 [bafetinib]
Method in brief: as §1

[6] = compound: Cc1cccc(CC(=O)N2CCc3c2ccc(-c2cn(C)c4ncnc(N)c24)c3F)n1
Method in brief: as §1

Measured: log2 fold change

FXN (UniProt Q16595)
inactive: alvocidib -0.034 | Tubastatin A 0.081 | [1] 0.022 | defactinib 0.023 | [2] 0.027 | encorafenib 0 | [3] -0.025 | alisertib 0.042 | [4] -0.032 | gefitinib -0.158 | lapatinib 0.062 | pictilisib -0.052 | crizotinib 0.071 | [5] 0.113 | duvelisib -0.002 | gandotinib -0.077 | tozasertib 0.057 | doramapimod -0.038 | bafetinib 0.006 | [6] -0.058

FREM2 (UniProt Q5SZK8)
inactive: alvocidib -0.114 | Tubastatin A 0.068 | [1] -0.034 | defactinib -0.005 | [2] -0.038 | encorafenib 0.031 | [3] -0.022 | alisertib 0.098 | [4] -0.013 | gefitinib 0.164 | lapatinib -0.077 | pictilisib 0.046 | crizotinib -0.095 | duvelisib 0.06 | gandotinib 0.172 | tozasertib 0.104 | doramapimod 0.07 | bafetinib -0.135 | [6] 0.218
active: [5] -0.318

FURIN (UniProt P09958)
inactive: alvocidib -0.04 | Tubastatin A 0.112 | [1] -0.051 | defactinib 0.008 | [2] 0.031 | encorafenib 0.031 | [3] 0.011 | alisertib 0.033 | gefitinib 0.344 | pictilisib -0.02 | crizotinib 0.006 | [5] 0.032 | duvelisib -0.009 | gandotinib 0.042 | tozasertib 0.082 | doramapimod 0.13 | bafetinib -0.044 | [6] -0.011

GALNT6 (UniProt Q8NCL4)
inactive: alvocidib -0.041 | [1] 0.075 | defactinib -0.009 | [2] -0.063 | encorafenib 0.055 | [3] -0.078 | alisertib -0.119 | [4] -0.073 | gefitinib 0.005 | lapatinib 0.086 | pictilisib -0.157 | crizotinib -0.146 | [5] -0.166 | duvelisib -0.041 | gandotinib -0.033 | tozasertib 0.031 | doramapimod -0.017 | bafetinib -0.064 | [6] 0.095

GFOD2 (UniProt Q3B7J2)
inactive: alvocidib 0.095 | Tubastatin A 0.11 | [1] -0.018 | defactinib -0.131 | [2] -0.116 | encorafenib 0.162 | [3] -0.015 | [4] -0.028 | lapatinib -0.026 | pictilisib -0.127 | [5] -0.188 | duvelisib 0.063 | gandotinib -0.108 | tozasertib 0.22 | bafetinib -0.037 | [6] 0.122

GADD45A (UniProt P24522)
inactive: alvocidib 0.112 | Tubastatin A 0 | alisertib -0.087 | gefitinib 0.032 | crizotinib -0.057 | [5] 0.164 | gandotinib 0.204 | doramapimod 0.015 | [6] -0.227

GALNT7 (UniProt H0YAH3)
inactive: alvocidib 0.153 | [1] -0.217 | defactinib 0 | encorafenib -0.053 | [3] -0.052 | alisertib -0.072 | gefitinib -0.021 | [5] -0.011 | gandotinib 0.036 | tozasertib -0.024 | [6] -0.075

GDF15 (UniProt Q99988)
inactive: alvocidib -0.057 | Tubastatin A -0.058 | [1] -0.017 | defactinib -0.097 | [2] 0.15 | alisertib -0.073 | gefitinib 0.061 | crizotinib 0.001 | [5] 0.101 | duvelisib -0.096 | gandotinib 0.03 | doramapimod -0.035 | [6] 0.037

GBP2 (UniProt P32456)
inactive: alvocidib -0.015 | Tubastatin A -0.114 | [1] 0.126 | [2] 0.176 | encorafenib 0.076 | [3] 0.008 | [4] -0.115 | lapatinib 0.04 | crizotinib -0.097 | [5] -0.29 | duvelisib -0.033 | gandotinib 0.019 | tozasertib 0.055 | doramapimod 0.068 | [6] 0.248

GART (UniProt C9JZG2)
inactive: alvocidib -0.071 | Tubastatin A 0.018 | encorafenib 0.038 | [3] 0.088 | alisertib 0.121 | [4] -0.056 | gefitinib 0.281 | lapatinib -0.131 | pictilisib 0.019 | crizotinib -0.245 | [5] -0.371 | gandotinib 0.02 | tozasertib 0.037 | doramapimod 0.166 | bafetinib 0.026 | [6] 0.19

FSIP2 (UniProt Q5CZC0)
inactive: alvocidib -0.192 | Tubastatin A 0.066 | [1] -0.028 | [2] 0.237 | alisertib 0.159 | [4] 0.177 | gefitinib 0.095 | lapatinib -0.065 | crizotinib -0.066 | [5] -0.396 | duvelisib 0.064 | gandotinib 0.102 | doramapimod 0.209 | [6] 0.152

FRMPD3 (UniProt Q5JV73)
inactive: alvocidib -0.152 | Tubastatin A 0.077 | [1] -0.143 | defactinib -0.027 | alisertib 0.155 | [4] -0.051 | gefitinib 0.216 | lapatinib 0.07 | pictilisib -0.002 | [5] -0.245 | gandotinib 0.046 | bafetinib -0.296 | [6] 0.108

GATA1 (UniProt P15976)
inactive: alvocidib -0.016 | Tubastatin A -0.065 | [1] 0.025 | [2] -0.003 | alisertib 0.013 | [4] -0.005 | gefitinib -0.015 | lapatinib 0.006 | pictilisib 0.121 | crizotinib -0.031 | [5] 0.073 | duvelisib -0.074 | gandotinib 0.042 | doramapimod 0.017 | bafetinib 0.001 | [6] 0.019

GDE1 (UniProt Q9NZC3)
inactive: alvocidib 0.307 | Tubastatin A -0.047 | [1] 0.014 | [2] 0.024 | encorafenib -0.045 | [3] -0.02 | [4] -0.038 | lapatinib -0.016 | pictilisib 0.114 | crizotinib -0.005 | duvelisib 0.049 | tozasertib 0.157 | doramapimod -0.017 | bafetinib -0.041
active: [5] 0.842 | gandotinib -0.434 | [6] -0.409

GABPB2 (UniProt Q8TAK5)
inactive: alvocidib -0.084 | Tubastatin A -0.049 | [2] 0.173 | encorafenib 0.273 | [3] 0.067 | pictilisib -0.153 | crizotinib -0.013 | [5] -0.116 | duvelisib -0.056 | gandotinib -0.067 | tozasertib 0 | doramapimod 0.174 | bafetinib 0.107 | [6] 0.034

GEMIN8 (UniProt Q9NWZ8)
inactive: alvocidib 0.017 | Tubastatin A -0.027 | [1] -0.005 | defactinib 0.083 | encorafenib 0.049 | [3] -0.147 | alisertib 0.017 | [4] 0.123 | gefitinib -0.049 | lapatinib -0.071 | pictilisib -0.009 | crizotinib 0.011 | [5] 0.066 | gandotinib -0.166 | tozasertib -0.352 | doramapimod -0.028 | bafetinib -0.043 | [6] -0.024

FUT11 (UniProt Q495W5)
inactive: alvocidib 0.011 | Tubastatin A -0.055 | [1] 0.051 | encorafenib -0.159 | [3] 0.004 | alisertib 0.049 | [4] 0.26 | gefitinib 0.035 | lapatinib -0.027 | pictilisib 0.338 | crizotinib -0.015 | [5] 0.087 | gandotinib 0.041 | tozasertib -0.145 | doramapimod 0.004 | bafetinib 0.051 | [6] -0.054

FZD1 (UniProt Q9UP38)
inactive: alvocidib -0.064 | Tubastatin A 0.071 | alisertib 0.167 | gefitinib 0.04 | crizotinib 0.095 | [5] 0.04 | gandotinib -0.018 | doramapimod 0.068 | [6] 0.066

GDI2 (UniProt Q5SX86)
inactive: alvocidib -0.101 | Tubastatin A 0.214 | [1] -0.083 | defactinib 0.123 | [2] -0.157 | alisertib -0.228 | [4] 0.056 | gefitinib -0.253 | lapatinib -0.101 | pictilisib 0.023 | [5] -0.205 | duvelisib 0.056 | gandotinib -0.125 | bafetinib -0.276 | [6] 0.076

FOXP4 (UniProt Q8IVH2)
inactive: alvocidib 0.076 | Tubastatin A -0.145 | [1] -0.066 | defactinib -0.06 | [2] -0.035 | encorafenib -0.097 | [3] 0.112 | alisertib 0.034 | gefitinib 0.008 | pictilisib 0.066 | [5] 0.082 | duvelisib 0.215 | gandotinib -0.06 | tozasertib -0.034 | bafetinib -0.028 | [6] 0.138

GDAP1 (UniProt Q8TB36)
inactive: alvocidib 0.061 | Tubastatin A -0.049 | [1] -0.017 | defactinib 0.231 | [2] -0.062 | encorafenib 0.069 | [3] 0 | [4] 0.002 | lapatinib -0.003 | pictilisib 0.02 | crizotinib 0.005 | [5] 0.065 | duvelisib 0.034 | gandotinib -0.023 | tozasertib 0.052 | doramapimod -0.059 | bafetinib 0.024 | [6] -0.135

Random excerpt: 2 records from the list.
FZD1 (UniProt Q9UP38)
inactive: alvocidib -0.064 | Tubastatin A 0.071 | alisertib 0.167 | gefitinib 0.04 | crizotinib 0.095 | [5] 0.04 | gandotinib -0.018 | doramapimod 0.068 | [6] 0.066

GDI2 (UniProt Q5SX86)
inactive: alvocidib -0.101 | Tubastatin A 0.214 | [1] -0.083 | defactinib 0.123 | [2] -0.157 | alisertib -0.228 | [4] 0.056 | gefitinib -0.253 | lapatinib -0.101 | pictilisib 0.023 | [5] -0.205 | duvelisib 0.056 | gandotinib -0.125 | bafetinib -0.276 | [6] 0.076

Continued.

GAS6 isoform 1 (UniProt Q14393)
inactive: alvocidib -0.05 | [1] -0.144 | encorafenib 0.149 | [3] -0.072 | [4] 0.176 | lapatinib -0.225 | pictilisib -0.07 | crizotinib -0.233 | [5] -0.348 | gandotinib -0.012 | tozasertib 0.022 | doramapimod -0.194 | bafetinib 0.046 | [6] 0.094

GATC (UniProt O43716)
inactive: alvocidib -0.018 | Tubastatin A 0.055 | [1] -0.003 | defactinib 0.153 | [2] 0.066 | encorafenib 0.006 | [3] 0.03 | alisertib 0.001 | [4] -0.078 | gefitinib -0.09 | lapatinib 0.007 | crizotinib 0.105 | [5] 0.117 | duvelisib 0.051 | gandotinib -0.045 | tozasertib -0.03 | doramapimod 0.081 | [6] -0.019

GC isoform 3 (UniProt P02774)
inactive: alvocidib 0.105 | Tubastatin A 0.087 | defactinib -0.003 | [2] 0.244 | encorafenib -0.018 | [3] -0.049 | crizotinib 0.029 | [5] 0.173 | duvelisib 0.133 | gandotinib -0.025 | tozasertib -0.004 | doramapimod -0.081 | [6] -0.075
